No constants are given. Whether binding was seen depends on the method and setting. Binding seen in cells or lysates may run through a third protein. A yes stands for co-enrichment or nearness to the bait. Other partners may have been found. Where a sequence is shown, tags or fusion partners need not be part of it.

For the test, the target named is T1, Latrophilin-2 (LPHN2), endogenous (human (endogenous in HEK293T and HUVEC)) (UniProt O95490).
T1 sequence: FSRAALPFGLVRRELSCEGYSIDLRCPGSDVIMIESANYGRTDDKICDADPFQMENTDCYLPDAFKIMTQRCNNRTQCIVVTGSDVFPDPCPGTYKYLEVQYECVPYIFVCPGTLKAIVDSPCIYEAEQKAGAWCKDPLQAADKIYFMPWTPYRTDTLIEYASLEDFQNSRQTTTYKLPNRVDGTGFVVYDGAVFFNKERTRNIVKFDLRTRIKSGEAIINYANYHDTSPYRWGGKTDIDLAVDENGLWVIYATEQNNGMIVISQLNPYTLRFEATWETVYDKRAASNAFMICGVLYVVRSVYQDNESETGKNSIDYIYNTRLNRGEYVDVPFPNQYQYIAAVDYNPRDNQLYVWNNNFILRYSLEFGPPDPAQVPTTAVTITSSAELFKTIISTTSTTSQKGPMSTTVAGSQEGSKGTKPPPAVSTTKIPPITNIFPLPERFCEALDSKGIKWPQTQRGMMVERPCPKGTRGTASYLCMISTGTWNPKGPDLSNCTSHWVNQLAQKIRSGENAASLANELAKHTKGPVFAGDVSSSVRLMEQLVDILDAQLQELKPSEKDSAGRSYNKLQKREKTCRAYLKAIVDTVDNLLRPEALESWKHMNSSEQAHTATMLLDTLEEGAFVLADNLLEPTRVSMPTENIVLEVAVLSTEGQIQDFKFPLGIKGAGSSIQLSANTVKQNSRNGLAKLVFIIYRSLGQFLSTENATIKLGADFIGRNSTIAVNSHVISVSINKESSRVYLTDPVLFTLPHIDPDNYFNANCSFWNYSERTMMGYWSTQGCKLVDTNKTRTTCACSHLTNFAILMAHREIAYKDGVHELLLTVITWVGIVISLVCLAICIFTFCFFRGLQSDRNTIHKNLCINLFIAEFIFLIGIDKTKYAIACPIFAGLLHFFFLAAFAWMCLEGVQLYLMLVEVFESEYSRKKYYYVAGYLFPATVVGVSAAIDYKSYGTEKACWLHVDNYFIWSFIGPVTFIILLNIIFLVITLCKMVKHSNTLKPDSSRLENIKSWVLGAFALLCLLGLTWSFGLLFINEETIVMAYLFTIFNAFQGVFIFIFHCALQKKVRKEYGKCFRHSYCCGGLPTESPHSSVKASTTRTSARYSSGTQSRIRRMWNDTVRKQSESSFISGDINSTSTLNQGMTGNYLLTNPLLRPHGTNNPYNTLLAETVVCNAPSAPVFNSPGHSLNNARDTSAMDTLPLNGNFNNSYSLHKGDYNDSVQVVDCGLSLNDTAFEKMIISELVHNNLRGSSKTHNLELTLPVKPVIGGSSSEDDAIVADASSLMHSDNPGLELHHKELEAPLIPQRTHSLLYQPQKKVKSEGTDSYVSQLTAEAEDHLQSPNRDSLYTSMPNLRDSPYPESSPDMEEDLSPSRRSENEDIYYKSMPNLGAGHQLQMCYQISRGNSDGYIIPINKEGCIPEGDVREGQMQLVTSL
In words: affinity purification with mass spectrometry; HUVECs serum-starved 6 h, treated with LRG1 (1 ug/ml) for 0, 10, 30, 60 min, lysed in RIPA buffer; IP with anti-LPHN2 antibody, bands cut from SDS-PAGE gel, nano LC-MS/MS; only the binder purified.

B1: Leucine-rich alpha-2-glycoprotein 1 (LRG1), recombinant tag-free human LRG1 (ligand, UniProt P02750 36-347, looked up)
chain: VTLSPKDCQVFRSDHGSSISCQPPAEIPGYLPADTVHLAVEFFNLTHLPANLLQGASKLQELHLSSNGLESLSPEFLRPVPQLRVLDLTRNALTGLPPGLFQASATLDTLVLKENQLEVLEVSWLHGLKALGHLDLSGNRLRKLPPGLLANFTLLRTLDLGENQLETLPPDLLRGPLQLERLHLEGNKLQVLGKDLLLPQPDLRYLFLNGNKLARVAAGAFQGLRQLDMLDLSNNSLASVPEGLWASLGQPNWDMRDGFDISGNPWICDQNLSDLYRWLQAQKDKMFSQNDTRCAGPEAVKGQTLLAVAKSQ
notes: human LRG1, residues V36-Q347; In the TriCEPS capture LRG1 was coupled to the TriCEPS reagent; Residues of the thrombin site may remain after cleavage; also called recombinant LRG1; soluble LRG1; not shown: Fc (human IgG), C-terminal, cleaved
Regarding B1, the binding result is listed as “binds”.

For the origin of these results see article PMC9166773, “Latrophilin-2 is a novel receptor of LRG1 that rescues vascular and neurological abnormalities and restores diabetic erectile function” (Experimental & Molecular Medicine, 2022).
